PubChem BioAssay AID1224828 – NIAID | 2016
Here is a random part of about 17,000 reagents tested. In the full data, 762 (4.5%) were called active. 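Active calls include both raised and lowered p65 entry, mostly lowered; wells with fewer than 50 cells lack a z-score.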 Raw values are not corrected between plates.

Purpose: 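Find genes required for NF-kappaB p65 moving into the nucleus after LPS in mouse macrophages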 (primary screen)
System: mouse RAW264.7 G9 macrophage reporter cells (GFP-p65, Tnf promoter-mCherry)
Reagent: siRNA pool against mouse genes, 100 nM
Duration: 2 days siRNA transfection, then 40 min LPS before fixation
Treatment: LPS (Salmonella minnesota R595) at 10 ng/ml
Measured: 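Imaged p65 nuclear translocation ratio, normalised to the plate median, converted to robust z-scores and averaged across two replicates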
Reading the numbers: p65 translocation robust z-score: higher = more nuclear NF-kappaB p65 after LPS than the plate median; nuclear/cytoplasmic p65 ratio: higher = more nuclear NF-kappaB p65
Hit rule: 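Called active when z exceeds 3.3 or falls under -1.56 (median of Tlr4 controls), giving activity score of at least 50; no calls for control wells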
Meaning of the calls: active = hit (p65 shift raised or lowered); inactive = no clear change

How did the screen score Nsd1?
p65 translocation robust z-score: -0.26; nuclear/cytoplasmic p65 ratio, rep 1: 1.46; nuclear/cytoplasmic p65 ratio, rep 2: 1.34; low cell count flag: enough cells to score; Call: inactive

What is on record for 9030203C11Rik?
nuclear/cytoplasmic p65 ratio, rep 1: 1.14; nuclear/cytoplasmic p65 ratio, rep 2: 1.32; low cell count flag: fewer than 50 cells per well; well left out of scoring; Call: inactive

What did the screen give for Mbtps2?
p65 translocation robust z-score: 0.02; nuclear/cytoplasmic p65 ratio, rep 1: 1.48; nuclear/cytoplasmic p65 ratio, rep 2: 1.32; low cell count flag: enough cells to score; Call: inactive

With Cbln3, how do the results read?
nuclear/cytoplasmic p65 ratio, rep 1: 1.32; nuclear/cytoplasmic p65 ratio, rep 2: 1.3; low cell count flag: fewer than 50 cells per well; well left out of scoring; Call: inactive

For Fcgr2b, what was measured?
p65 translocation robust z-score: -0.96; nuclear/cytoplasmic p65 ratio, rep 1: 1.33; nuclear/cytoplasmic p65 ratio, rep 2: 1.25; low cell count flag: enough cells to score; Call: inactive

With Ankar, what does the deposit list?
nuclear/cytoplasmic p65 ratio, rep 1: 1.36; nuclear/cytoplasmic p65 ratio, rep 2: 1.25; low cell count flag: fewer than 50 cells per well; well left out of scoring; Call: inactive

How did the screen score Il18bp?
p65 translocation robust z-score: -0.67; nuclear/cytoplasmic p65 ratio, rep 1: 1.35; nuclear/cytoplasmic p65 ratio, rep 2: 1.33; low cell count flag: enough cells to score; Call: inactive

With Or6k2, how do the results read?
p65 translocation robust z-score: 0.85; nuclear/cytoplasmic p65 ratio, rep 1: 1.51; nuclear/cytoplasmic p65 ratio, rep 2: 1.37; low cell count flag: enough cells to score; Call: inactive

How did the screen score Exo5?
nuclear/cytoplasmic p65 ratio, rep 1: 1.31; nuclear/cytoplasmic p65 ratio, rep 2: 1.1; low cell count flag: fewer than 50 cells per well; well left out of scoring; Call: inactive

How did the screen score Or6ae1?
nuclear/cytoplasmic p65 ratio, rep 1: 1.39; nuclear/cytoplasmic p65 ratio, rep 2: 1.22; low cell count flag: fewer than 50 cells per well; well left out of scoring; Call: inactive

What is on record for Pfdn2?
p65 translocation robust z-score: -1.12; nuclear/cytoplasmic p65 ratio, rep 1: 1.36; nuclear/cytoplasmic p65 ratio, rep 2: 1.21; low cell count flag: enough cells to score; Call: inactive

With Lrrtm2, how do the results read?
p65 translocation robust z-score: -0.36; nuclear/cytoplasmic p65 ratio, rep 1: 1.65; nuclear/cytoplasmic p65 ratio, rep 2: 1.51; low cell count flag: enough cells to score; Call: inactive

2 entries from above, ordered by “nuclear/cytoplasmic p65 ratio, rep 1”, high to low.
Ankar | nuclear/cytoplasmic p65 ratio, rep 1 = 1.36; nuclear/cytoplasmic p65 ratio, rep 2 = 1.25; low cell count flag = fewer than 50 cells per well; well left out of scoring; Call = inactive
Il18bp | p65 translocation robust z-score = -0.67; nuclear/cytoplasmic p65 ratio, rep 1 = 1.35; nuclear/cytoplasmic p65 ratio, rep 2 = 1.33; low cell count flag = enough cells to score; Call = inactive
